In this data set the test system is mice. Briefly: Spontaneous locomotor activity. Type of data set: in vivo. To be noted: for Activity counts: 30 min before test, mean ± SEM.

Regarding `CN(C)CCCN1c2ccccc2CCc2ccccc21` [IMI, imipramine, reference compound], the “change of locomotor activity vs control” value (IMI 20 mg/kg ip) is recorded as “did not significantly change”. For the same compound, the Activity counts (IMI 20 mg/kg ip, 6 min) stood at 1217 ± 114.

`COc1cc(/C=C/c2ccc(O)cc2)cc(OC)c1` [PTE, trans-3,5-dimethoxy-4′-hydroxy-trans-stilbene] had an Activity counts (PTE 50 mg/kg ip, 6 min) of 857 ± 132; an Activity counts (PTE 100 mg/kg ip, 6 min) of 747 ± 96; an Activity counts (PTE 200 mg/kg ip, 5 min) of 880 ± 134; an Activity counts (PTE 200 mg/kg ip, 6 min) of 874 ± 87; an Activity counts (PTE 400 mg/kg ip, 5 min) of 1603 ± 161; an Activity counts (PTE 600 mg/kg ip, 5 min) of 806 ± 116. For the same compound, the Activity counts (PTE 800 mg/kg ip, 5 min) was 1613 ± 181. In addition, the “change of locomotor activity vs control” value runs as follows: (PTE 50 to 200 mg/kg ip) “did not significantly change”; (PTE high doses, 200–800 mg/kg ip) “not statistically significant changes”.

The values above are taken from publication PMC6482291, “Anticonvulsant Activity of Pterostilbene in Zebrafish and Mouse Acute Seizure Tests” (Neurochemical Research, 2019).
